In PubChem BioAssay AID1487 (National Center for Advancing Translational Sciences (NCATS), 2009):
The list shows a part of the results. Shown are side measurements of this screen, not its main read-out; they come without a call. The list favours compounds with an active or inconclusive main result. The note in brackets gives the kind of curve behind each potency; many fits are weak.

Test: qHTS Assay for Modulators of Lamin A Splicing
Settings: HeLa LMNA splicing GFP/RFP minigene ratio, 48 h
Procedure, shortened: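 S3 HeLa cells stably expressing lamin A-EGFP splicing minigene plus DsRed2, 600 cells/well, 48 h compound exposure at 37C. Laser-scanning cytometry; analysed as GFP (500-530 nm)/RFP (575-640 nm) total intensity ratio; 0.5% DMSO vehicle.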

[1] = measured here: GFP splicing reporter channel
[2] = measured here: RFP viability control channel

Row | Structure (SMILES) | AC50 [1] | AC50 [2]
1 | Cc1nc(-c2ccc(Cl)cc2)sc1CCNC(=O)C(=O)Nc1ccc2c(c1)OCO2 | 8.91 µM [falling, partial curve] | 8.91 µM [falling, partial curve, poor fit]
2 | Cc1ccc(Cl)cc1NC1=C/C(=N\S(=O)(=O)c2cccs2)c2ccccc2C1=O | 35.5 µM [falling, single point] | 3.98 µM [falling, partial curve]
3 | CCc1c(C)nc2ncnn2c1NCCc1ccc(OC)c(OC)c1 | 25.1 µM [rising, single point] | 17.8 µM [rising, partial curve]
4 | CC(C)(C)OC(=O)C(C)(C)O/N=C(\C(=O)O)c1csc(N)n1 | 0.1 µM [rising, full curve, poor fit] | 
5 | Cc1cc(N(CCO)CCO)ccc1N=Nc1cc(F)ccc1F |  | 0.00316 µM [falling, full curve, poor fit]
6 | O=C(CN(C1CCCCC1)S(=O)(=O)c1ccc(Cl)cc1)NCc1cccnc1 | 35.5 µM [rising, single point] | 
7 | O=C(Nc1nc(-c2ccccn2)cs1)C1CC1 |  | 14.1 µM [rising, single point]
8 | Clc1ccc(-c2nnc(COc3ncnc4sccc34)o2)cc1 | 0.0178 µM [falling, full curve, poor fit] | 
9 | COc1ccccc1-c1cc(C(=O)Nc2cc(C)n(Cc3ccc(Cl)cc3)n2)no1 |  | 35.5 µM [falling, single point]
10 | Cc1ccc(NC(=O)CN2c3cccc4cccc(c34)S2(=O)=O)cc1S(=O)(=O)N1CCOCC1 | 12.6 µM [rising, single point] | 14.1 µM [rising, partial curve]
11 | NC(=O)c1ccc[n+]([C@@H]2O[C@H](COP(=O)([O-])OP(=O)(O)OC[C@H]3O[C@@H](n4cnc5c(N)ncnc54)[C@@H](O)[C@@H]3O)[C@@H](O)[C@@H]2O)c1 | 0.00251 µM [rising, full curve, poor fit] | 0.126 µM [rising, partial curve]
12 | Cn1c(SCc2nc3ccccc3[nH]2)nnc1-c1cccs1 | 35.5 µM [rising, single point] | 
13 | Cc1nnc(SCC(=O)NCc2ccco2)[nH]c1=O |  | 8.91 µM [rising, partial curve]
14 | COc1cc2c(cc1OC)-c1cc(NC3CCCCCCC3)nc(=O)n1CC2 |  | 10 µM [rising, partial curve]
15 | CC(=O)OC1C(N2CCCCC2)c2c(ccc(/C=C/C(=O)N3CCCCC3)c2O)OC1(C)C (centres undefined) |  | 35.5 µM [falling, partial curve, poor fit]
16 | O=C(Cc1cccs1)NCc1cn2ccccc2n1 | 22.4 µM [falling, single point] | 
17 | COc1cc(/C=C2/CCc3ccccc3C2=O)cc(OC)c1OC |  | 11.2 µM [rising, partial curve, poor fit]
18 | Nc1ccc(C(=O)N/N=C\c2cc(N=Nc3cccc4ccccc34)ccc2O)cc1 |  | 17.8 µM [falling, single point]
19 | COc1ccnc(CS(=O)c2nc3ccc(OC(F)F)cc3[nH]2)c1OC (centres undefined) |  | 1.26 µM [falling, partial curve, poor fit]

Row | Structure (SMILES) | AC50 [1] | AC50 [2]
20 | Cc1ccc(S(=O)(=O)NCCC(=O)Nc2ccc(C)c(Cl)c2)cc1C |  | 22.4 µM [rising, single point]
21 | Cc1cc(C(=O)COc2ccc(C#N)cc2)c(C)n1-c1ccc2c(c1)OCO2 |  | 3.55 µM [rising, partial curve]
22 | COc1ccc(C(=O)Nc2cccc(C(=O)OCc3cc(=O)n4c5c(sc4n3)CCCC5)c2)cc1 |  | 11.2 µM [rising, partial curve, poor fit]
23 | Cc1cc(-c2nn(-c3ccccc3F)cc2CN2CCCC(CO)C2)c(C)s1 (centres undefined) | 1.41 µM [falling, partial curve] | 1 µM [falling, partial curve]
24 | Cc1cc(NC(=O)CCN2C(=O)C3C4CCC(C4)C3C2=O)cc(C)c1Br (centres undefined) |  | 22.4 µM [rising, single point]
25 | COc1ccccc1-n1c(=O)n(C)c2c(C(N)=O)nc(-c3cccc(OC)c3OC)nc21 |  | 0.0282 µM [rising, full curve, poor fit]
26 | COc1ccc2nc(NC(=O)c3cccc(S(=O)(=O)N4CCOCC4)c3)sc2c1 |  | 10 µM [falling, partial curve, poor fit]
27 | COc1ccc2oc(/C=C/N(C)C)c(C(=O)c3ccc(Cl)cc3)c2c1 |  | 15.8 µM [rising, single point]
28 | CC(NC(=O)c1ccc2c(c1)sc1nc(-c3ccc(F)cc3)cn12)C12CC3CC(CC(C3)C1)C2 (centres undefined) |  | 0.1 µM [falling, full curve, poor fit]
29 | CC(=O)N(C)c1ccc(OCC(O)CN(Cc2ccco2)S(=O)(=O)c2ccc(C)cc2)cc1 (centres undefined) |  | 11.2 µM [rising, partial curve]
30 | O=C(c1n[nH]c2ccccc12)N1CCN(S(=O)(=O)c2ccc3ccccc3c2)CC1 |  | 31.6 µM [rising, single point]
31 | Cc1cc(OCC(=O)Nc2ccc(S(=O)(=O)NC3=NCCCCC3)cc2)c(C(C)C)cc1Cl |  | 14.1 µM [rising, partial curve, poor fit]
32 | CSc1ccccc1NC(=O)NCCCl | 0.501 µM [falling, single point] | 
33 | Cn1c(=O)c(/C(N)=N/OC(=O)c2ccccc2)cn(-c2ccccc2)c1=O |  | 0.0224 µM [falling, full curve, poor fit]
34 | O=C(COc1ccccc1[N+](=O)[O-])N1CCC(Cc2ccccc2)CC1 | 2.82 µM [rising, partial curve] | 
35 | CSc1ccccc1NC(=O)CN(C)Cc1ccc(Br)cc1 |  | 35.5 µM [rising, single point]
36 | O=C(NCCc1ccc(Cl)cc1)C1CCN(S(=O)(=O)c2ccc3[nH]ccc3c2)CC1 | 11.2 µM [falling, partial curve] | 
37 | O=C(COCc1cc(-c2ccc3c(c2)OCO3)on1)Nc1cc(Cl)ccc1O | 3.55 µM [falling, single point] | 3.55 µM [falling, single point]

Some of these compounds in order of length of the SMILES, smallest number first:
Row | Structure (SMILES) | AC50 [1] | AC50 [2]
16 | O=C(Cc1cccs1)NCc1cn2ccccc2n1 | 22.4 µM [falling, single point] | 
13 | Cc1nnc(SCC(=O)NCc2ccco2)[nH]c1=O |  | 8.91 µM [rising, partial curve]
6 | O=C(CN(C1CCCCC1)S(=O)(=O)c1ccc(Cl)cc1)NCc1cccnc1 | 35.5 µM [rising, single point] | 
